In patent US20230416361A1:
Results are given in words; binding and its absence hold for the method and conditions named. Some entries that bind do so weakly or less than the wild type.

Amino acid sequences for entries named in this document (tags omitted). Residues count along the entry.
UniProt Q8TD46, residues 29-265: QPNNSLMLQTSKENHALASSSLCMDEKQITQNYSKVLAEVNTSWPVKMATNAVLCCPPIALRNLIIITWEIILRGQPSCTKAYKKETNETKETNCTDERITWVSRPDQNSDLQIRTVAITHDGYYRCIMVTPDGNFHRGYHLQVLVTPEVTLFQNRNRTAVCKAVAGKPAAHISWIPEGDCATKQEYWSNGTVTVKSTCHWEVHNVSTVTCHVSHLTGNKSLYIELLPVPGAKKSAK

Molecular target: monomeric soluble human CD200R extracellular domain (human) (UniProt Q8TD46)
Test: SPR (Biacore 3000), human CD200 injected over human CD200R extracellular domain held by the immobilised non-competing anti-CD200R antibody, 25 C

B1: human CD200 (ligand, UniProt P41217 31-232, looked up)
chain: QVQVVTQDEREQLYTPASLKCSLQNAQEALIVTWQKKKAVSPENMVTFSENHGVVIQPAYKDKINITQLGLQNSTITFWNITLEDEGCYMCLFNTFGFGKISGTACLTVYVQPIVSLHYKFSEDHLNITCSATARPAPMVFWKVPRSGIENSTVTLSHPNGTTSVTSILHIKDPKNQVGKEVICQVLHLGTVTDFKQTVNKG
  binding: binds
